Primary screen of a compound library

The chains behind the UniProt entries cited, without tags or fusion partners. Residues count along the entry.
UniProt Q8IDJ8, 1-583: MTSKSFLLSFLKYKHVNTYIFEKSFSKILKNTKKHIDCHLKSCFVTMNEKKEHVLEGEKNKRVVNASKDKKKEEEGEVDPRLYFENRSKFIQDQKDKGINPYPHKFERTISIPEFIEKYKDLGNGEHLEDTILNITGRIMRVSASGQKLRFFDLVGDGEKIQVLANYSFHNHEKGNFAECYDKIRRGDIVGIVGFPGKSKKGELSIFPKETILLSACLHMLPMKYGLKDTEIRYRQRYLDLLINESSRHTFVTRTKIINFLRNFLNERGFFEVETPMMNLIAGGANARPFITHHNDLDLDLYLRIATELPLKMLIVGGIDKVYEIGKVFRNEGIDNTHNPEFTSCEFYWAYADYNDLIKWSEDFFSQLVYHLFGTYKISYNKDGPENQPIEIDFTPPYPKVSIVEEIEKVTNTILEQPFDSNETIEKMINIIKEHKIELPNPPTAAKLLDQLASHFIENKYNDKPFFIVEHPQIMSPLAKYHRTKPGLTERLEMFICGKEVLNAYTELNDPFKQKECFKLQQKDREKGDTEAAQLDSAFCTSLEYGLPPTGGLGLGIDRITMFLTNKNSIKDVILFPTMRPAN
UniProt I6X8D2, whole entry: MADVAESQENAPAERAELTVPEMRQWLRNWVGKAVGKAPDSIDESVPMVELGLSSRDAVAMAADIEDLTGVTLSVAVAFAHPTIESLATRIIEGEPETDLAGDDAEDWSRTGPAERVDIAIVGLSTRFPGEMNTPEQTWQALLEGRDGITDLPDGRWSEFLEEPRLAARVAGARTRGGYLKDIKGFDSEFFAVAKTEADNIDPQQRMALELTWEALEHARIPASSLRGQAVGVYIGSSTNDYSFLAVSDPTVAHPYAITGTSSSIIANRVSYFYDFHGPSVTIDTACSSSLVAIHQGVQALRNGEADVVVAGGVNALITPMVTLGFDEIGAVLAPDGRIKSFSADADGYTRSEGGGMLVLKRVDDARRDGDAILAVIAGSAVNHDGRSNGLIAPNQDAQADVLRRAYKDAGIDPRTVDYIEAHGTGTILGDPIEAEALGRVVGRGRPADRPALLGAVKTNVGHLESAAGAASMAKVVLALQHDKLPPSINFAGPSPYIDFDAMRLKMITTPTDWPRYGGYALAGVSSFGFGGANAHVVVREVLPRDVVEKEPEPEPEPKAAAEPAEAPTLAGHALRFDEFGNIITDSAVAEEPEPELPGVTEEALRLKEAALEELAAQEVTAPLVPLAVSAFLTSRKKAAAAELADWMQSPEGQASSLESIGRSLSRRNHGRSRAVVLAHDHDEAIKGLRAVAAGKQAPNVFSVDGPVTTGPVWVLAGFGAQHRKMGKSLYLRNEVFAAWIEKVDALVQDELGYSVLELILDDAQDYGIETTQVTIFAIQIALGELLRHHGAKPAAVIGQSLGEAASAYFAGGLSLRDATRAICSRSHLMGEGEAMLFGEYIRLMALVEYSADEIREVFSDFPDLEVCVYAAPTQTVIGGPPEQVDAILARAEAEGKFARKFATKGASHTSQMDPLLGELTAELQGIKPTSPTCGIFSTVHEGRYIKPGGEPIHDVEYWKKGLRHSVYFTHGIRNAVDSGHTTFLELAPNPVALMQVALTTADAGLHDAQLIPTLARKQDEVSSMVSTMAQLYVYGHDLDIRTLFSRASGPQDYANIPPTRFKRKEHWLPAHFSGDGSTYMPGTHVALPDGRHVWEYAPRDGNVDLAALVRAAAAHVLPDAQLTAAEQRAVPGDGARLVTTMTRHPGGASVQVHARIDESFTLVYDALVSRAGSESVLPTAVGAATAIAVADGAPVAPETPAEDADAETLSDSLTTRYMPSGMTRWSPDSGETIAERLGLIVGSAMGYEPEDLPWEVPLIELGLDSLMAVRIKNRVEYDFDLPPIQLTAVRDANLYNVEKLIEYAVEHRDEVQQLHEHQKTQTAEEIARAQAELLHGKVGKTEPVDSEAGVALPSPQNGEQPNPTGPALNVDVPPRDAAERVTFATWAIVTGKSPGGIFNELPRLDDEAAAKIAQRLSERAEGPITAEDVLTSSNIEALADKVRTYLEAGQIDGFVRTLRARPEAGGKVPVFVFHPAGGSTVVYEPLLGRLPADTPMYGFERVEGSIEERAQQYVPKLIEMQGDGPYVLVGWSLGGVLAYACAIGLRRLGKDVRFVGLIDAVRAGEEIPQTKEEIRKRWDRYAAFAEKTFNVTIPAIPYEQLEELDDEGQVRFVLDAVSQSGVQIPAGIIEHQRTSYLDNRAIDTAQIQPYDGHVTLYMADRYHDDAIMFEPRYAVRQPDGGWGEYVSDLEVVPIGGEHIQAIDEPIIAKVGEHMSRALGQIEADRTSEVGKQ
UniProt P9WNZ1, whole entry: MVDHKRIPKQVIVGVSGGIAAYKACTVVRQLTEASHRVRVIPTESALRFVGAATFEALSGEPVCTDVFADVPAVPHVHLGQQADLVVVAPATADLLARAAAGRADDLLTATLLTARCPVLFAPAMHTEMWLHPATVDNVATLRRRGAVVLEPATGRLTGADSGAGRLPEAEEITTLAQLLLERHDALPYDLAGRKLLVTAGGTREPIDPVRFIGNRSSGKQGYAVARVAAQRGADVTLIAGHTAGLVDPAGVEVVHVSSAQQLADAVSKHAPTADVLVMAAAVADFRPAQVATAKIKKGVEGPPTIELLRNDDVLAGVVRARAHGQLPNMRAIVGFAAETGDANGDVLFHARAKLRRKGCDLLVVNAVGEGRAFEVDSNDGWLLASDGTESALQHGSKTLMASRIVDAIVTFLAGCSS
UniProt Q4DA54, 1-478: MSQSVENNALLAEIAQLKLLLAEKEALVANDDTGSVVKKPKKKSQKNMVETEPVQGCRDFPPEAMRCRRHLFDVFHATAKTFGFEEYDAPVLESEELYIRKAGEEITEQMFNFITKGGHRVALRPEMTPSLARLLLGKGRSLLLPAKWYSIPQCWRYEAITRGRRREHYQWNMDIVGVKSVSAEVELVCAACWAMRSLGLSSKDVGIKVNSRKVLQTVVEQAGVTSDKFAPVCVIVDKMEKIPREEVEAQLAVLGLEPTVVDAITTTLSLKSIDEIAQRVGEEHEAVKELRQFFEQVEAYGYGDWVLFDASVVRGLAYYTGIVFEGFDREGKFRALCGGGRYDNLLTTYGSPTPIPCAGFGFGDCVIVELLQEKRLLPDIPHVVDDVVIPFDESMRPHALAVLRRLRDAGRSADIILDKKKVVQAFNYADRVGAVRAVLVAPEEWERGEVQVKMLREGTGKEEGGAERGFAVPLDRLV
UniProt P9WFT3, whole entry: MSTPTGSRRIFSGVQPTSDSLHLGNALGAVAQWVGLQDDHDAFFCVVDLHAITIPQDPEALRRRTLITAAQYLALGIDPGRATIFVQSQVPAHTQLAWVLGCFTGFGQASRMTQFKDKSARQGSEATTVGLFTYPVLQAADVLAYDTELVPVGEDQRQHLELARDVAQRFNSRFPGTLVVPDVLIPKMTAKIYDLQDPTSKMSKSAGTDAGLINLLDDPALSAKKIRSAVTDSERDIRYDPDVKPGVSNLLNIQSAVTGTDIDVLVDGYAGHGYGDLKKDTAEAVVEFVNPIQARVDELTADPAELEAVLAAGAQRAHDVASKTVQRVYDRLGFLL
UniProt P9WPC5, whole entry: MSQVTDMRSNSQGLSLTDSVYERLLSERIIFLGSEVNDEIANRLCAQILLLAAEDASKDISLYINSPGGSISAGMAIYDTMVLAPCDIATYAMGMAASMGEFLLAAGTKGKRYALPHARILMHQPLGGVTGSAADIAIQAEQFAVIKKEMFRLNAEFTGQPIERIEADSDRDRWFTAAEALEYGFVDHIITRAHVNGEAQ
UniProt P9WPC3, whole entry partner: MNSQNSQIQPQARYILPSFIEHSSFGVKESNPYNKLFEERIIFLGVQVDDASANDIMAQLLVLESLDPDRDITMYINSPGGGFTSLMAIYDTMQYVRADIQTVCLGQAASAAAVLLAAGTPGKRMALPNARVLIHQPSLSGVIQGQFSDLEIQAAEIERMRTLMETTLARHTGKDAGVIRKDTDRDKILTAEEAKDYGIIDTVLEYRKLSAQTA

From ChEMBL document CHEMBL3988442, “University of Dundee, Small-Polar-MMV Screening Library” (2021).

PfKRS1: 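Lysine-tRNA ligase, Plasmodium falciparum 3D7 (UniProt Q8IDJ8). Enzyme assay of the cytosolic lysyl-tRNA synthetase in 384-well plates, read by luminescence. Tested at 30 µM. Direction is inferred from only a few compounds that gave an IC50; most scored high, so higher reads as stronger inhibition. Size under these conditions: about 69,000 compounds, about 49 of them at 50% or above in at least one test.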
Pks13 thioesterase: 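Enzyme assay of the thioesterase domain of polyketide synthase 13; the read-out is not stated. Target: Polyketide synthase Pks13, Mycobacterium tuberculosis (UniProt I6X8D2). Compounds at 30 µM. Higher reads as stronger inhibition (inferred from which compounds were picked for retests). About 67,000 compounds were tested under these conditions; 0.46% (about 300) showed 50% or more at least once.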
CoaBC: 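Coenzyme A biosynthesis protein CoaBC, Mycobacterium tuberculosis (UniProt P9WNZ1). Enzyme assay of CoaBC with a phosphate dye (Biomol Green) read at 650 nm. Tested at 30 µM. Higher reads as stronger inhibition, judged from the few compounds that gave an IC50. Most strong results did not repeat in a second test. Of about 67,000 compounds tested this way, about 40 (0.06%) reached 50% or more in at least one test.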
TcHisRS: 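Enzyme assay of histidyl-tRNA synthetase; the read-out is not stated. Target: Histidine-tRNA ligase, Trypanosoma cruzi CL Brener (UniProt Q4DA54). Tested at 30 µM. Direction is inferred from retests: higher values go with stronger inhibition. Size under these conditions: about 69,000 compounds, about 31 of them at 50% or above in at least one test.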
MtTrpRS: 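Tryptophan-tRNA ligase, Mycobacterium tuberculosis (UniProt P9WFT3). Enzyme assay of tryptophanyl-tRNA synthetase; the read-out is not stated. Tested at 10 µM. Higher most likely means stronger inhibition; the record gives no direction and few retests gave an IC50. About 65,000 compounds were tested under these conditions; 0.098% (about 64) showed 50% or more at least once.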
ClpP1P2: 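Protease assay of ClpP1P2, read by the AMC dye that it sets free. Target: ClpP1P2, Mycobacterium tuberculosis (UniProt P9WPC5 and UniProt P9WPC3). Concentration: 50 µM. Higher reads as stronger inhibition, judged from the few compounds that gave an IC50. Most other retested compounds had strongly negative values. Of about 69,000 compounds tested this way, about 10 (0.015%) reached 50% or more in at least one test.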

Results are given as percent effect.
The controls that fix the scale are not given in the record; negative values are as filed.
Compounds were drawn at random from those tested, without regard to their results.

- CNc1nc2c(s1)C(c1cccc(Cl)c1Cl)CC(=O)N2 (stereo not drawn) : PfKRS1: 29.53%; Pks13 thioesterase: -25.68%; CoaBC: 11.77%; TcHisRS: 34.78%; MtTrpRS: 8.678%; ClpP1P2: -21.72%
- Cc1ccccc1CC(=O)NCc1cnc(CC2CCN(C)CC2)cn1 : PfKRS1: 0.6495%; Pks13 thioesterase: 4.259%; CoaBC: 17.43%; TcHisRS: 3.39%; MtTrpRS: 4.243%; ClpP1P2: -7.26%
- Cc1n[nH]c(C2CN(CC(=O)NCCC3=CCCCC3)CCO2)n1 (stereo not drawn) : PfKRS1: 0.07128%; Pks13 thioesterase: 33.51%; CoaBC: 5.506%; TcHisRS: -3.067%; MtTrpRS: 6.427%; ClpP1P2: -9.968%
- COC[C@@]12CC[C@@H](N3CCOCC3)C[C@H]1CCN(c1nc(CO)cs1)C2 : PfKRS1: 10.27%; Pks13 thioesterase: -8.775%; CoaBC: 8.73%; TcHisRS: 5.102%; MtTrpRS: -4.131%; ClpP1P2: -4.235%
- CSCCC(NC(=O)c1ccco1)C(=O)N(C)Cc1ccsc1 (stereo not drawn) : PfKRS1: 2.997%; Pks13 thioesterase: -31.88%; CoaBC: -2.42%; TcHisRS: 3.867%; MtTrpRS: 1.738%; ClpP1P2: -0.6015%
- Cc1cnc(CNS(=O)(=O)CCC2CCCO2)o1 (stereo not drawn) : PfKRS1: 0.8618%; Pks13 thioesterase: -16.01%; CoaBC: 0.8065%; TcHisRS: 0.8403%; MtTrpRS: -1.574%; ClpP1P2: -4.746%
- C1CCC(CSc2nnnn2C2CC2)OC1 (stereo not drawn) : PfKRS1: -0.2248%; Pks13 thioesterase: -6.651%; CoaBC: -0.1209%; TcHisRS: 5.844%; MtTrpRS: -3.489%; ClpP1P2: -8.495%
- Cc1ccc(C(=O)N2Cc3ccccc3C2)cc1N1CCNC1=O : PfKRS1: 2.291%; Pks13 thioesterase: -6.991%; CoaBC: -1.786%; TcHisRS: 3.734%; MtTrpRS: 3.552%; ClpP1P2: -17.14%
- CSCC(=O)N1CCCN(c2ccccc2C)CC1 : PfKRS1: 1.523%; Pks13 thioesterase: -5.626%; CoaBC: 0.8811%; TcHisRS: 5.932%; MtTrpRS: -1.174%; ClpP1P2: -19.25%
- COCC(=O)N(Cc1ccc2cc[nH]c2c1)C1CC1 : PfKRS1: 3.21%; Pks13 thioesterase: -5.14%; CoaBC: 0.3797%; TcHisRS: 4.969%; MtTrpRS: 2.847%; ClpP1P2: -11.51%
- CCc1ccc(-n2nnc(C(=O)O)c2-c2ccncc2)cc1 : PfKRS1: 7.092%; Pks13 thioesterase: 5.31%; CoaBC: 0.2532%; TcHisRS: 2.439%; MtTrpRS: -1.295%; ClpP1P2: 6.58%
- Cc1nn(C)c(Cl)c1C1CCCN1CCc1ccccn1 (stereo not drawn) : PfKRS1: 3.266%; Pks13 thioesterase: -7.697%; CoaBC: 7.05%; TcHisRS: 4.135%; MtTrpRS: -5.361%; ClpP1P2: -4.724%
- CCc1ccc(CN2CCC3(CC2)CN(c2cnn(C)c2)C(=O)CO3)o1 : PfKRS1: 3.427%; Pks13 thioesterase: 7.353%; CoaBC: 6.015%; TcHisRS: 4.878%; MtTrpRS: -1.245%; ClpP1P2: 2.385%
- CS(=O)(=O)c1ccc(-c2cc(O)cc(CCC3CCCCN3)c2)cc1 (stereo not drawn) : PfKRS1: -1.991%; Pks13 thioesterase: -23.52%; CoaBC: -5.967%; TcHisRS: 2.618%; MtTrpRS: -2.113%; ClpP1P2: -0.2254%
- Cc1cc(C)c2c(c1)C(NC(=O)CSCC(N)=O)CCO2 (stereo not drawn) : PfKRS1: 4.658%; Pks13 thioesterase: 8.02%; CoaBC: 0%; TcHisRS: 10.92%; MtTrpRS: -1.816%; ClpP1P2: -6.311%
- O=C(CC1CCCC1)N1C[C@@H]2C[C@H]1CN2 : PfKRS1: 5.002%; Pks13 thioesterase: -28.42%; CoaBC: 1.527%; TcHisRS: -1.942%; MtTrpRS: -7.68%; ClpP1P2: -11.29%
- CN1CCOC(CNCc2coc(-c3cccs3)n2)C1 (stereo not drawn) : PfKRS1: -2.098%; Pks13 thioesterase: -39.71%; CoaBC: 3.342%; TcHisRS: 5.263%; MtTrpRS: -1.023%; ClpP1P2: 20.89%

For reference, 2 entries once more:

Result for COC[C@@]12CC[C@@H](N3CCOCC3)C[C@H]1CCN(c1nc(CO)cs1)C2 was PfKRS1: 10.27%; Pks13 thioesterase: -8.775%; CoaBC: 8.73%; TcHisRS: 5.102%; MtTrpRS: -4.131%; ClpP1P2: -4.235%.
Result for Cc1n[nH]c(C2CN(CC(=O)NCCC3=CCCCC3)CCO2)n1 (stereo not drawn) was PfKRS1: 0.07128%; Pks13 thioesterase: 33.51%; CoaBC: 5.506%; TcHisRS: -3.067%; MtTrpRS: 6.427%; ClpP1P2: -9.968%.